{"source": "PubChem BioAssay AID686943 (Drosophila RNAi Screening Center, 2013)", "aim": "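Search across the genome for regulators of signalling from receptor tyrosine kinase to ERK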 (primary screen)", "cell system": "Drosophila S2R+ haemocyte-like cells expressing YFP-tagged ERK (Rolled)", "reagents": "long dsRNA against Drosophila genes", "treatment": "insulin stimulation versus unstimulated cells; dose and duration not given", "detection": "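Per-plate z-scores of phospho-ERK immunostaining normalised to YFP-tagged ERK, measured with and without insulin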", "reading the numbers": "replicate 1, z-score of dpERK with insulin: higher = more active ERK per ERK-YFP after insulin", "note": "In all, the deposit lists about 23,000 reagents; below is an unselected part of those with a known target gene and a result. 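Extra replicates exist only for a retested subset of genes; insulin dose and duration not given; both raised and lowered dpERK matter.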 Not all columns of the deposit are shown. Reagent sequences are not shown. The record does not give: the amount of reagent, the time to read-out."}
{"target": "CG5746", "dsRNA": "DRSC15868", "replicate 1, z-score of dpERK with insulin": -1.53}
{"target": "MFS16", "dsRNA": "DRSC04051", "replicate 1, z-score of dpERK with insulin": -1.13}
{"target": "upSET", "dsRNA": "DRSC11051", "replicate 1, z-score of dpERK with insulin": -0.56}
{"target": "CG13065", "dsRNA": "DRSC09948", "replicate 1, z-score of dpERK with insulin": 0.33}
{"target": "CG15040", "dsRNA": "DRSC19616", "replicate 1, z-score of dpERK with insulin": 0.9}
{"target": "CG15040", "dsRNA": "DRSC21482", "replicate 1, z-score of dpERK with insulin": 1.15}
{"target": "temp", "dsRNA": "DRSC18271", "replicate 1, z-score of dpERK with insulin": 0.07}
{"target": "CG5828", "dsRNA": "DRSC02900", "replicate 1, z-score of dpERK with insulin": 0.75}
{"target": "mxc", "dsRNA": "DRSC17819", "replicate 1, z-score of dpERK with insulin": -1.42}
{"target": "Agpat2", "dsRNA": "DRSC03532", "replicate 1, z-score of dpERK with insulin": 0.1}
{"target": "CG14615", "dsRNA": "DRSC20627", "replicate 1, z-score of dpERK with insulin": -0.88}
{"target": "BicC", "dsRNA": "DRSC02005", "replicate 1, z-score of dpERK with insulin": -1.43}
